These are yes or no findings as the source states them, for the method shown. For part of these data: In cells and extracts the contact can be indirect. Some entries that bind do so weakly or less than the wild type. Where a sequence is shown, tags or fusion partners need not be part of it.

Experiment [1] deals with T1, flag-MRTF-A, full-length (COS-7) (UniProt Q8K4J6).
T1 sequence: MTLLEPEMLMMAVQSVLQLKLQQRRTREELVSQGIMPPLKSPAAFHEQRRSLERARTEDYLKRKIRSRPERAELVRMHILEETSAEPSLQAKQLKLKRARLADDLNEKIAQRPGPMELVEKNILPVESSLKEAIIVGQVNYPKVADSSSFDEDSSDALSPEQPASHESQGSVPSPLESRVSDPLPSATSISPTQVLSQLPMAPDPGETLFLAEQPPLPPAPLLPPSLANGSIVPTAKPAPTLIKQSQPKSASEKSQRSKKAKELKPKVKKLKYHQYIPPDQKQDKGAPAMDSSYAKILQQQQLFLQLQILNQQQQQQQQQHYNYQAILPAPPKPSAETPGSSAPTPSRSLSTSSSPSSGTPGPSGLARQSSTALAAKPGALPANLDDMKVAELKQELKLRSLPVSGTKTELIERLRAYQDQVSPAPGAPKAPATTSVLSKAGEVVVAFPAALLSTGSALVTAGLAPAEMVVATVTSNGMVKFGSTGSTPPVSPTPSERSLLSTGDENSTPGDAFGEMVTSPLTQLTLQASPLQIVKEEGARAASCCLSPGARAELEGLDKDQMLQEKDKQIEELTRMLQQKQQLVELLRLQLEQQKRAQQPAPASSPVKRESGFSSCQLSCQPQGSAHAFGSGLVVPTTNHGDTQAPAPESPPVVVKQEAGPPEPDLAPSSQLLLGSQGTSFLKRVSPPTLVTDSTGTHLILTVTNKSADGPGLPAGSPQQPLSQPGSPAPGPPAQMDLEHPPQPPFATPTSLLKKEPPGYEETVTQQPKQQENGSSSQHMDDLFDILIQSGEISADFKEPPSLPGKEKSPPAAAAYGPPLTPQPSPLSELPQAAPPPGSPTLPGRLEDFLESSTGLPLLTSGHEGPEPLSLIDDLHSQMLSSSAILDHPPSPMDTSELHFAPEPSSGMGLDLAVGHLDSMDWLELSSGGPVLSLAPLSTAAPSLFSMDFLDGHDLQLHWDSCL
The experiment can be described thus: far-Western, overlay or dot blot; flag-tagged MRTF-A variants immunoprecipitated from COS-7 cells, resolved by SDS-PAGE, transferred to nitrocellulose and renatured; incubated with recombinant GST-PRDM6 in blocking buffer (20% goat serum, 3% BSA, in PBS); probed with anti-GST Ab; both purified.

The target in a further experiment is T2, myc-Prdm6 (COS-7) (UniProt Q3UZD5).
T2 sequence: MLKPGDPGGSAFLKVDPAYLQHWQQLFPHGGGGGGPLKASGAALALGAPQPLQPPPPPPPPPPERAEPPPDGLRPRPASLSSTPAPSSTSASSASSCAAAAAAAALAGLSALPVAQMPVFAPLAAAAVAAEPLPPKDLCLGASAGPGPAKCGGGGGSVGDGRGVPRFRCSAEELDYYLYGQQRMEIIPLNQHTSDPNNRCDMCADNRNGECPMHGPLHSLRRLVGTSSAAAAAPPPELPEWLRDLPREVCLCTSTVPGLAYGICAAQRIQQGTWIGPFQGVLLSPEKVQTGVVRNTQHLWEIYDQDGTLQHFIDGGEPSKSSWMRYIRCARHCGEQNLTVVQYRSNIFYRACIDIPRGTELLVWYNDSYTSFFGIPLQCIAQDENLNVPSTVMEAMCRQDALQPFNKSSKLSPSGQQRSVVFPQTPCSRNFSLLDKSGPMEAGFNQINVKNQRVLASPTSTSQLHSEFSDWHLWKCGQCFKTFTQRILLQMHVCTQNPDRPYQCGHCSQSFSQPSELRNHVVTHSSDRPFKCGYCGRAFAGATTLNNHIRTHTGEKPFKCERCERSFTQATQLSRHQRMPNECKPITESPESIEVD
The experiment can be described thus: co-IP; COS-7 cells transfected with epitope-tagged Prdm6 and MRTF-A constructs; RIPA lysates, anti-myc or anti-flag IP overnight at 4°C, washed in 20 mM Tris HCl pH 7.3, 150 mM NaCl, 10% glycerol, 0.5% Triton X-100; Western blot; in separate experiments cytochalasin D was included. A general note: In western blotting, separated proteins are transferred to a membrane and probed.

For the next experiment, the target named is T3, myc-Prdm6 (10T1/2) (UniProt Q3UZD5).
T3 sequence: T2 sequence
The experiment can be described thus: co-IP; 10T1/2 cells transfected with myc-Prdm6 or empty vector; myc and control IgG immunoprecipitates probed with an Ab against endogenous MRTF-A.

B1: recombinant GST-PRDM6 protein (protein, UniProt Q3UZD5 1-596)
chain: T2 sequence
For the molecule B1, the binding result in experiment [1] is reported as “binds”.

B2: flag-MRTF-A, full-length (COS-7) (protein, UniProt Q8K4J6 1-964)
chain: T1 sequence
As to B2, the binding result with myc-Prdm6 (COS-7) was “binds”.

B3: endogenous MRTF-A (10T1/2 cells) (protein, UniProt Q8K4J6 1-964)
chain: T1 sequence
Regarding B3, in the experiment with myc-Prdm6 (10T1/2), the binding entry was “binds”.

(Values after paper PMC10077476.)
